# Screen size: about 290,000 compounds; about 370 (0.13%) were called active. The inconclusive results got no clear call from the source; some entries with a clear call stand among them for comparison.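 Rule for the calls: active = spots per cell inhibited over 60%, with over 100 cells counted and total cytoplasm intensity under 500,000; inconclusive = wells with under 100 cells, flagged as likely toxic; inactive = the rest.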
# Chains of the proteins cited; added tags and fusions are not shown. Lines headed by an entry give the natural chain unless they say otherwise; changes in a name come on top.
# UniProt Q9Y2T6: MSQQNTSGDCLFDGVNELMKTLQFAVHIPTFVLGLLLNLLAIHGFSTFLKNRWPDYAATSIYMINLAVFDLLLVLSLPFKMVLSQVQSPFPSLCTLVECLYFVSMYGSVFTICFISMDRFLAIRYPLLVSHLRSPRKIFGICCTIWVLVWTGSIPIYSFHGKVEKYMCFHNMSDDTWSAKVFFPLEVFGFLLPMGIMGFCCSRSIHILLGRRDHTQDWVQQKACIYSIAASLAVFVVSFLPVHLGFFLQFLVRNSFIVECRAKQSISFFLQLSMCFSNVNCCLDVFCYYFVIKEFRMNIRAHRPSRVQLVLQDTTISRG
# Target: G-protein coupled receptor 55 (Homo sapiens) (UniProt Q9Y2T6)
# Assay: inhibition of LPI-stimulated GPR55 beta-arrestin translocation – imaging, U2OS, beta-arrestin-GFP, LPI agonist, primary screen (AID 2013);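 note: U2OS cells stably carrying GPR55 and arrestin-GFP stimulated by 5 µM LPI near EC80; imaged beta-arrestin-GFP aggregate spots per cell after agonist stimulation; plate controls were LPI-stimulated DMSO wells for no effect and DMSO wells without LPI for full effect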
# Settings: LPI antagonism, at 10 µM, active compounds read high
row,SMILES,inhibition
1,O=C(Nc1n[nH]c(=S)s1)c1ccc2ccccc2c1,inconclusive: 46.1%
2,COc1ccc(-n2nc(C(=O)NCC(=O)NCCCN3CCN(C)CC3)c3ccccc3c2=O)cc1OC,inconclusive: 103%
3,COc1cccc(/C=N/NC(=O)c2cc(C34CC5CC(CC(C5)C3)C4)[nH]n2)c1,inactive: 14.9%
4,CC1Cn2c(nc(=O)c3c2NCN(CCc2ccccc2)C3)S1 (centres undefined),inactive: 3.9%
5,CCN(c1cccc(C)c1)S(=O)(=O)c1ccc2c(c1)oc(=O)n2C,inactive: 1.9%
6,CCOC(=O)C1CCN(S(=O)(=O)c2ccc3[nH]c(=O)oc3c2)CC1,inconclusive: -254%
7,Cc1nn(C)c(C)c1S(=O)(=O)NCCc1ccc(Cl)cc1,inconclusive: 103%
8,COc1cccc(NC(=O)c2cccc(C(=O)Nc3cccc(OC)c3)c2)c1,inactive: -0.6%
9,CC(=O)c1ccc(NC(=O)CSc2nc3nc(C)cc(C)n3n2)cc1,inconclusive: 103%
10,N#Cc1cccc(NC(=O)COC(=O)c2ccc3c(=O)n4c(nc3c2)CCC4)c1,inactive: 3%
11,Cc1ccc(N(CC(=O)NCc2ccccn2)S(=O)(=O)c2ccccc2)cc1C,inconclusive: 75.4%
12,COc1ccc(-c2noc(CCC(=O)NC3CCCCC3)n2)cc1OC,inconclusive: 38.5%
13,CSc1ccc(CN(C)C(=O)c2cc(=O)c3ccccc3o2)cc1,inactive: -0.8%
14,O=C(NNc1c(Cl)cccc1Cl)c1ccno1,inactive: 5%
15,COc1ccccc1CN=Cc1[nH]c2ccc(Br)c(Cl)c2c1O,inconclusive: 102%
16,COc1ccc(-n2c(Cc3cccn3C)nnc2SCC(=O)Nc2ccc(C)cc2C)cc1,inconclusive: 103%
17,COc1ccccc1-[n+]1c(C)cc(/C=C2\Sc3ccccc3N2C)cc1C,inconclusive: 103%
18,Cc1cc(C2(c3ccc(O)c(C)c3)OC(=O)c3ccccc32)ccc1O,active: 83.2%
19,CCCCN1/C(=C/c2ccc3ccccc3[n+]2CC)Sc2ccccc21,inconclusive: 101%
20,CC(=O)N(Cc1ccccc1)c1ncc2c(n1)c(=O)c(C#N)c1ccccn12,inconclusive: -36.4%
21,CC(C)c1ccc(CN2C(=O)NC3(CCCCCC3)C2=O)cc1,inactive: 4.2%
22,COc1ccccc1C1C(C#N)=C(N)Oc2c1c(-c1ccccc1)nn2-c1ccccc1 (centres undefined),active: 96.3%
23,N#C/C(=C\c1ccc(N2CCCCC2)o1)C(=O)Nc1cccc(Br)c1,inconclusive: 37.9%

# A section from further up, for reference:
row,SMILES,inhibition
22,COc1ccccc1C1C(C#N)=C(N)Oc2c1c(-c1ccccc1)nn2-c1ccccc1 (centres undefined),active: 96.3%
23,N#C/C(=C\c1ccc(N2CCCCC2)o1)C(=O)Nc1cccc(Br)c1,inconclusive: 37.9%

# (next part)

row,SMILES,inhibition
1,CC(=O)NC1=NC(=O)/C(=C/c2cn(C(C)=O)nc2-c2ccccc2)S1,active: 100%
2,Cc1ccc(OCCN2CCN(CC(O)Cn3c4ccccc4c4ccccc43)CC2)cc1 (centres undefined),active: 72.6%
3,CCOC(=O)c1nc(Nc2ccc(C)cc2)c2ccccc2n1,inactive: 11.6%
4,O=C(Nc1nc2c(s1)CCCC2)Oc1ccccc1,inconclusive: -129%
5,Cc1c(CCOC(=O)CC23CC4CC(CC(C4)C2)C3)sc[n+]1CC(=O)c1ccc(Br)cc1,inactive: 58.4%
6,N#C/C(=C/c1ccc(N2CCCCC2)o1)C(=O)NCCc1c[nH]c2ccccc12,inconclusive: 88.2%
7,O=C(COC(=O)c1ccccc1SCC(=O)N1CCCC1)Nc1ccccc1C(F)(F)F,inconclusive: 52.3%
8,COc1ccccc1NC(=O)N1CCC(NC(=O)C2CCCCC2)CC1,inconclusive: 26.2%
9,CSc1nc(Cl)c(C#N)c(-c2ccc(C)cc2)n1,active: 68.5%
10,CCN1CC=C2C(C#N)=C(N)C(C#N)(C#N)C(CCc3ccccc3)C2C1 (centres undefined),inconclusive: 63.8%
11,CCOc1ccc(CN2CCN(CC(O)Cn3c4ccccc4c4ccccc43)CC2)cc1 (centres undefined),active: 79.4%
12,CC(C(=O)Nc1ccccc1Oc1ccccc1)c1ccccc1 (centres undefined),active: 83.2%
13,Cc1ccc(C)c(SCC(=O)NNC(=O)c2ccccc2)c1,inconclusive: 103%
14,Cc1ccccc1C(=O)NC(=S)NCCC1=CCCCC1,inactive: 1%
15,Cc1ccc2c(c1)C1CC(C)(O2)N(c2cccc(C(=O)NC3CCN(Cc4ccccc4)CC3)c2)C(=O)N1 (centres undefined),inconclusive: 48.4%
16,CCCCNC(=O)C(=O)Nc1cc2c3c(c1)CCC(=O)N3CCC2,inconclusive: 104%
17,O=Cc1cn(CC(=O)N2CCOCC2)c2ccccc12,inactive: 6.5%
18,O=[N+]([O-])c1ccc(/C=C/C2=NN(c3ccccc3)C(c3ccco3)C2)cc1 (centres undefined),inconclusive: 46.3%
19,CCN(CC)c1ccc(-c2sc(Nc3ccccc3)n[n+]2-c2ccc(F)cc2)cc1,inconclusive: 88%
20,CCN(CC)c1ccc(/C=C2\SC(=O)N(C(C)C)C2=O)o1,inconclusive: 71.9%
21,CC[n+]1c(/C=C/C=C/N(C(C)=O)c2ccccc2)sc2cc(OC)ccc21,inconclusive: 86.3%
22,CC(=O)Nc1ccc(NC(=O)C2CCCN(S(=O)(=O)c3ccc(-n4cnnn4)cc3)C2)cc1 (centres undefined),inconclusive: 102%
23,CCN1/C(=C/c2ccc3cc(C)ccc3[n+]2CC)Sc2ccccc21,inconclusive: 102%

row,SMILES,inhibition
1,CC(C)CC(=O)Nc1ccccc1Oc1ccccc1,inactive: -0.5%
2,O=C(Nc1ccccc1N1CCOCC1)c1cccc(NS(=O)(=O)c2ccc(F)c(F)c2)c1,inactive: 2.6%
3,CN1CCN(c2nc(C(N)=O)cc(-c3ccccc3)n2)CC1,inactive: -5.1%
4,COc1ccc(NC(=S)N(CCCN2CCOCC2)Cc2ccccn2)cc1,inactive: -18.2%
5,COc1ccc(N2C(=O)CCC2=O)c(OC)c1,inactive: 1.4%
6,Cc1ccc(N/C=C/C(=O)c2ccccc2)cc1C,inconclusive: 99.5%
7,COc1ccc(C(CCNC(C)c2ccccc2)C(C)C)cc1 (centres undefined),inactive: 15.3%
8,O=C(N/N=C/c1ccc(Cl)c([N+](=O)[O-])c1)c1cc(-c2ccc3c4c(cccc24)CC3)n[nH]1,active: 76.6%
9,CC1(c2ccccc2)CC(C)(C)N(C(=O)c2cc([N+](=O)[O-])cc([N+](=O)[O-])c2)c2ccccc21 (centres undefined),active: 64.4%
10,COc1cc(C2NC(C(=O)O)CS2)ccc1OCc1ccccc1C#N (centres undefined),inconclusive: 79.2%
11,N#C/C(=C/c1ccc(N2CCCCC2)o1)C(=O)Nc1ccc(Cl)cc1,inconclusive: 42.2%
12,O=C1C(Cc2ccc(Br)cc2)SC(=Nc2ccccc2)N1c1ccccc1 (centres undefined),inactive: 7.8%
13,N=c1n(CC(=O)c2ccc([N+](=O)[O-])cc2)c2ccccc2n1Cc1ccc(Cl)cc1,active: 65.4%
14,C=CCNC(=O)C1CCC(=O)N1S(=O)(=O)c1ccc(C)cc1 (centres undefined),inactive: 9.3%
15,COc1cc(/C=C2/SC(=S)N(Cc3ccccc3)C2=O)cc(Cl)c1O,inconclusive: 56.9%
16,N#Cc1c(N)nc2c(c1-c1ccccc1)CCC2,inactive: -2.3%
17,O=C(N/C=C/c1ccc(Cl)cc1)NCc1ccc(Cl)cc1,inactive: 9%
18,Cc1nnc(NC(=O)c2sc3nc(-c4cccs4)cc(C(F)(F)F)c3c2N)s1,inconclusive: 92.2%
19,O=C(OCC(=O)N1CCCC1=O)c1cccc(S(=O)(=O)N2CCOCC2)c1,inconclusive: 29.8%
20,CC(=O)Nc1sc(/C(C#N)=C/c2ccc(Cl)c(Cl)c2)nc1-c1ccc(C)cc1,inconclusive: 65.7%
21,N#CCSc1ccsc1C(=O)Nc1ccc(F)cc1,inactive: 2.6%
22,COc1cc(OC)c(OC)cc1/C=N/NC(=S)NCCN1CCOCC1,inconclusive: 103%
23,C(=N\N1CCN(C2c3ccccc3-c3ccccc32)CC1)/c1cccs1,inconclusive: 103%

row,SMILES,inhibition
1,CCOC(=O)c1c(NC(=O)C2=C(C)NC(=S)NC2c2ccc(F)cc2)sc(C)c1C (centres undefined),active: 64.1%
2,COc1cc(-c2nn3c(-c4ccccc4)nnc3s2)cc(OC)c1OC,inactive: -5.2%
3,N#C/C(=C/c1ccc(N2CCOCC2)o1)c1ccc(Br)cc1,inconclusive: 86.1%
4,CCCN1C(=O)/C(=C/c2ccc(N3CCCC3)c(C)c2)NC1=S,inconclusive: 85.8%
5,CCN1CC=C2C(C#N)=C(N)C(C#N)(C#N)[C@H](c3cccc(OC)c3OC)[C@H]2C1,inconclusive: 76.3%
6,COc1cc(CNCCO)cc(Cl)c1OCc1ccc(Cl)cc1Cl,active: 83.3%
7,COCCNC(=O)c1ccc(-c2csc(C)n2)cc1,inconclusive: 103%
8,CCCC1C2CN(C(C)C)CC=C2C(C#N)=C(N)C1(C#N)C#N (centres undefined),inconclusive: 85.8%
9,CCCCC(C(=O)NC1CCCC1)N(C(=O)c1snc(C(N)=O)c1N)c1ccc(OCC)cc1 (centres undefined),inactive: 4.9%
10,NC(=O)c1sc2nnc(-c3ccccc3)c(-c3ccccc3)c2c1N,inactive: 21.8%
11,c1ccc(-c2cnn3c(-c4ccccc4)c(-c4ccccc4)nc3n2)cc1,inconclusive: 62.7%
12,O=C1S/C(=C/c2ccc(N3CCOCC3)o2)C(=O)N1Cc1c(F)cccc1Cl,inconclusive: 80.1%
13,CCN(Cc1ccccc1)C(=O)C(C)OC(=O)c1cc(S(=O)(=O)Nc2c(C)n(C)n(-c3ccccc3)c2=O)ccc1C (centres undefined),inconclusive: 104%
14,O=C(O)CN1C(=O)/C(=C2\C(=O)N(Cc3ccccc3Cl)c3ccccc32)SC1=S,inconclusive: 103%
15,O=C(O)CN1C(=O)/C(=C/c2ccc(SCc3ccccc3)o2)SC1=S,inactive: 4.7%
16,O=C(CN(C1CCCCC1)S(=O)(=O)c1ccc(F)cc1)NCc1ccncc1,inconclusive: -45.4%
17,CCN(CC(O)CON=C1c2ccccc2-c2ccccc21)S(=O)(=O)c1ccc(Cl)cc1 (centres undefined),active: 80.9%
18,CCN(CC)c1ccc(/C=C(\C#N)C(=O)c2ccc(Br)cc2)cc1,inconclusive: 90.9%
19,O=C(N1CCOCC1)N1CCN(Cc2ccccc2)CC1,inconclusive: 36.5%
20,Clc1cccc(-c2cc3nc4c(c(N5CCNCC5)n3n2)CCCC4)c1,active: 90.4%
